Measured values from PMC6690746 (European journal of medicinal chemistry, 2018).

Test system: T98G cells
Experiment: Antitumor activity
Format: cell-based, human

## CN[C@H]1CCc2cc(OC)c(OC)c(OC)c2-c2ccc(OC)c(=O)cc21 [colcemide, reference compound]
72 h, at 10 μM
  Maximal killing (% ± SEM): 35.9% ± 6.4
read-out: Antitumor activity EC50, WST-1, 72 h
  EC50: 113 nM
